According to paper PMC6126873:
Results are given in words; binding and its absence hold for the method and conditions named. For some of these results: Binding seen in cells or lysates may run through a third protein. Some entries that bind do so weakly or less than the wild type. For some of these results: Tags and fused reporters may be left off the sequences shown.

Protein sequences, listed by entry. Tags and fused reporters are not part of them.
UniProt Q80X56: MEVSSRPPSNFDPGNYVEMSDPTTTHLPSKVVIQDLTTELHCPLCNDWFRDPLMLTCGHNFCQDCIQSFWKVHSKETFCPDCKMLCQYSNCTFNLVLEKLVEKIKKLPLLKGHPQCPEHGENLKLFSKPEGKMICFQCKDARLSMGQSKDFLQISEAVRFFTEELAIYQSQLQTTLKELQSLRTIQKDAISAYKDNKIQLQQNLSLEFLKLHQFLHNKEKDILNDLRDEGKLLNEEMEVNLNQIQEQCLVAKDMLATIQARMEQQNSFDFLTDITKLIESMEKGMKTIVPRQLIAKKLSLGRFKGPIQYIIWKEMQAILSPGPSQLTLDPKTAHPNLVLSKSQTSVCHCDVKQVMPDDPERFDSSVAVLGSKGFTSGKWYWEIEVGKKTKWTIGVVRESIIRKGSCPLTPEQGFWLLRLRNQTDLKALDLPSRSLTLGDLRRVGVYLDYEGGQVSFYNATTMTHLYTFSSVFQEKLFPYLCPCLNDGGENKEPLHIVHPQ

Columns and labels:
[1] = biological target: NS3-Flag (Dengue virus type 2 (DENV-2), New Guinea C (NGC) strain) (UniProt P14340); experiment: co-IP; cells co-transfected with NS2B, NS3 and TRIM69 (or control vector) for 48 h, then treated with MG132; immunoprecipitation and western blots
[2] = biological target: T1, endogenous TRIM69 (human (endogenous in 293T)) (UniProt Q86WT6); experiment: co-IP; endogenous TRIM69 and NS3 from lysates of 293T cells infected with DENV-2 for 48 h; IP with TRIM69 antibody or NS3 antibody; IgG as control
T1 sequence: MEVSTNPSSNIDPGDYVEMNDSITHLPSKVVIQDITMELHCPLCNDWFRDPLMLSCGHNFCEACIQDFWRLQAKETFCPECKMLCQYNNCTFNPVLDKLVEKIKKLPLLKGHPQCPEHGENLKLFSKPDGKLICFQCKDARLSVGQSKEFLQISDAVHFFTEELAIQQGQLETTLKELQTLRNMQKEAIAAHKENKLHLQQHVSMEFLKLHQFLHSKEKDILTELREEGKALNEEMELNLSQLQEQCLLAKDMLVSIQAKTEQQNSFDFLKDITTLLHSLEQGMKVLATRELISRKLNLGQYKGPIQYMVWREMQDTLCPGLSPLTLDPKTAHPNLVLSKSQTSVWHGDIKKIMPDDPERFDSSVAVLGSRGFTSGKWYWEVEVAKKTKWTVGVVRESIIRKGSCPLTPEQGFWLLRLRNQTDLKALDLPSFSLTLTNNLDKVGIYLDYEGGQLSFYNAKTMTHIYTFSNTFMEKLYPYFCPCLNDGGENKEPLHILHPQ

TRIM69-Myc (human) = biological target: T2, TRIM69-Myc (human) (UniProt Q86WT6); experiment: co-IP; 293T cells transfected with NS3-Flag and TRIM69-Myc; IP with Flag antibody or, reciprocally, with Myc antibody overnight at 4 C, protein A/G 4 h; western blot
T2 sequence: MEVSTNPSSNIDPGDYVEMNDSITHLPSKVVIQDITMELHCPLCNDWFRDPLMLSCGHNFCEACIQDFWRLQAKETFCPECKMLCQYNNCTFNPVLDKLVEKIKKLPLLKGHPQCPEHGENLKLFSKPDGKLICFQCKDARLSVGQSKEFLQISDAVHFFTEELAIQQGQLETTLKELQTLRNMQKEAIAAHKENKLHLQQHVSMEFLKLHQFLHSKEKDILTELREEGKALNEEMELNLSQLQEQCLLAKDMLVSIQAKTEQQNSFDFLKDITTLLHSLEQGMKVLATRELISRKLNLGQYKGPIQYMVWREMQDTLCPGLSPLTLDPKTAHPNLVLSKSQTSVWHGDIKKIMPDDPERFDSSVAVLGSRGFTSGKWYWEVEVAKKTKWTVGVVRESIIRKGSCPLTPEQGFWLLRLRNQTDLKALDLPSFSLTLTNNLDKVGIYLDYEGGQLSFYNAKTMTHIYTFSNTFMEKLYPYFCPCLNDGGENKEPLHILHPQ

[3] = biological target: DENV NS3 from DENV-2 infected B16F10 cells (Dengue virus type 2 (DENV-2), New Guinea C (NGC) strain) (UniProt P14340); experiment: co-IP; endogenous mTRIM69 and NS3 from lysates of B16F10 cells infected with DENV-2 for 48 h
[4] = biological target: GST-NS3 (Dengue virus type 2 (DENV-2), New Guinea C (NGC) strain) (UniProt P14340); experiment: pull-down; recombinant GST-NS3 (GST as control) incubated with immunoprecipitation purified TRIM69-Myc; pulled out by GST agarose; western blot; both purified
[5] = biological target: NS3-Flag (Dengue virus type 2 (DENV-2), New Guinea C (NGC) strain) (UniProt P14340); experiment: co-IP; 293T cells transfected with NS3-Flag and TRIM69-Myc; IP with Flag antibody or, reciprocally, with Myc antibody overnight at 4 C, protein A/G 4 h; western blot
[6] = biological target: DENV NS3 from DENV-2 infected 293T cells (Dengue virus type 2 (DENV-2), New Guinea C (NGC) strain) (UniProt P14340); experiment: co-IP; endogenous TRIM69 and NS3 from lysates of 293T cells infected with DENV-2 for 48 h; IP with TRIM69 antibody or NS3 antibody; IgG as control

DENV NS2B (from UniProt P14340 1346-1475)
binding [1]: binds

DENV NS3 from DENV-2 infected 293T cells (from UniProt P14340 1476-2093)
binding [2]: binds

NS3-Flag (from UniProt P14340 1476-2093)
binding (TRIM69-Myc (human)): binds

endogenous mTRIM69 (from UniProt Q80X56 1-500)
binding [3]: binds

B1: TRIM69-Myc (protein, UniProt Q86WT6 1-500)
chain: MEVSTNPSSNIDPGDYVEMNDSITHLPSKVVIQDITMELHCPLCNDWFRDPLMLSCGHNFCEACIQDFWRLQAKETFCPECKMLCQYNNCTFNPVLDKLVEKIKKLPLLKGHPQCPEHGENLKLFSKPDGKLICFQCKDARLSVGQSKEFLQISDAVHFFTEELAIQQGQLETTLKELQTLRNMQKEAIAAHKENKLHLQQHVSMEFLKLHQFLHSKEKDILTELREEGKALNEEMELNLSQLQEQCLLAKDMLVSIQAKTEQQNSFDFLKDITTLLHSLEQGMKVLATRELISRKLNLGQYKGPIQYMVWREMQDTLCPGLSPLTLDPKTAHPNLVLSKSQTSVWHGDIKKIMPDDPERFDSSVAVLGSRGFTSGKWYWEVEVAKKTKWTVGVVRESIIRKGSCPLTPEQGFWLLRLRNQTDLKALDLPSFSLTLTNNLDKVGIYLDYEGGQLSFYNAKTMTHIYTFSNTFMEKLYPYFCPCLNDGGENKEPLHILHPQ
binding [4]: binds | binding [5]: binds

B2: endogenous TRIM69 (protein, UniProt Q86WT6 1-500)
chain: MEVSTNPSSNIDPGDYVEMNDSITHLPSKVVIQDITMELHCPLCNDWFRDPLMLSCGHNFCEACIQDFWRLQAKETFCPECKMLCQYNNCTFNPVLDKLVEKIKKLPLLKGHPQCPEHGENLKLFSKPDGKLICFQCKDARLSVGQSKEFLQISDAVHFFTEELAIQQGQLETTLKELQTLRNMQKEAIAAHKENKLHLQQHVSMEFLKLHQFLHSKEKDILTELREEGKALNEEMELNLSQLQEQCLLAKDMLVSIQAKTEQQNSFDFLKDITTLLHSLEQGMKVLATRELISRKLNLGQYKGPIQYMVWREMQDTLCPGLSPLTLDPKTAHPNLVLSKSQTSVWHGDIKKIMPDDPERFDSSVAVLGSRGFTSGKWYWEVEVAKKTKWTVGVVRESIIRKGSCPLTPEQGFWLLRLRNQTDLKALDLPSFSLTLTNNLDKVGIYLDYEGGQLSFYNAKTMTHIYTFSNTFMEKLYPYFCPCLNDGGENKEPLHILHPQ
binding [6]: binds
